These are yes or no findings as the source states them, for the method shown. Binding seen in cells or lysates may run through a third protein. A yes stands for co-enrichment or nearness to the bait. Other partners may have been found.
Molecular target: GST-Cpgp40 (recombinant Cryptosporidium parvum gp40 fused to glutathione S-transferase) (Cryptosporidium parvum)
Assay: affinity purification with mass spectrometry; purified GST-Cpgp40 (GST as control) immobilised on Glutathione Sepharose 4B beads, 4 °C 2 h; incubated with HCT-8 cell membrane proteins (1.5 mg/ml); SDS-PAGE with silver staining, LC-MS/MS; only the target purified

B1: protein S100-A8 (S100/A8) (protein, UniProt P05109 1-93)
chain: MLTELEKALNSIIDVYHKYSLIKGNFHAVYRDDLKKLLETECPQYIRKKGADVWFKELDINTDGAVNFQEFLILVIKMGVAAHKKSHEESHKE
B1 was tested, and the binding was “binds”.

Source: article PMC10953254
